No constants are given. Whether binding was seen depends on the method and setting. Some entries that bind do so weakly or less than the wild type. Values belong to the binder of their own block, whether it stands above or below them.
Target: cynomolgus TPBG extracellular domain, huIgG1-Fc-His6 (cynomolgus)
Experiment: ELISA; Fc-TPBG coated; mAb titrated from 1 µg/ml

- binding: binds
B1: anti-TPBG antibody 091 (mAb) (antibody, V domains shown)
VH: EVHLLESGGGLVHPGGSLRLSCAASGFTFRSDAMHWVRQAPGKGLEWVSGVSGSGGSPYYADSVKGRFTISRDDSKTTLYLQMNSLRAEDTAVYYCATGGSIAGSYYYYPMDVWGQGTTVTVSS
VL: DIQMTQSPSSLSASVGDRVTITCQASQDISNYLNWYQQKPGKAPKLLIYAASTLQIGVPSRFSGSGSGTDFTFTISSLQPEDFATYYCQQANSFPLTFGGGTKVEIK

- binding: binds
B2: anti-TPBG antibody 051 (mAb) (antibody, V domains shown)
VH: EVQLLESGGGLLQPGGSLRLSCAASGFTFSIYWMTWVRQAPGKGLEWVSAISGSGGSTYYADSVKGRFTISRDNSKNTLYLQMNSLRAEDTAVYYCAKDYYSNVYWGQGTLVTVSS
VL: DIQMTQSPSSVSASVGDRVTITCRASQGIYSWLAWYQQKPGKAPKLLIYAASSLQSGVPSRFSGSGSGTDFTLTISSLQPEDFATYYCQQSDSPPYTFGQGTKLEIK

Reference: patent US20180311371A1
